# Measurements: PubChem BioAssay (NCATS)
# Several values for one entry are separate records, joined by “and”; a condition that tells them apart may be missing. Equal entries are not always repeated. Some of the results follow. These are further read-outs of the screen, such as a control signal, another cell line or another target. No call is given for them. The list favours compounds with an active or inconclusive main result. The note in brackets gives the kind of curve behind each potency; many fits are weak.
# Tests used:
# [1] = qHTS Assay for Inhibitors of PDE-IV (AID 607); settings: HEK293 ACTOne CNG channel cells, membrane potential fluorescence; measured here: parental cell counter-screen
# How it was run: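 Live HEK293 cells with a modified cyclic nucleotide-gated (CNG) channel report intracellular cAMP via membrane-potential dye fluorescence (ex 535/em 590 nm). Endogenous PDE-IV was targeted. Compounds were tested at up to 22.9 uM final; RO 20-1724 100 uM served as control.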
# [2] = qHTS Assay for Lipid Storage Modulators (AID 1519); settings: Drosophila S3 cells, BODIPY lipid droplet/cell ratio, laser cytometry, cells loaded with oleic acid
# How it was run: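 Cells seeded at 5,000 per well were treated with compounds over a concentration series and loaded with oleic acid (400 uM, as added). Lipid droplet fluorescence (488 nm excitation, 500-530 nm channel) was read by laser-scanning cytometry and normalized to 20 uM Triacsin C.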
# [3] = A High-Content qHTS Against Drug Library for the Identification of Small Molecules that Inhibit DYT1 Early Onset Primary Dystonia-Associated Cell Pathology (AID 1645839); settings: HEK293 Flp-In EGFP-delE TorsinA, punctate imaging, 48 h; measured here: cell count cytotoxicity
# How it was run: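 Readout: %pathology, the punctate EGFP-TorsinA distribution from imaging, as the primary channel and cell count as the toxicity counterscreen. HEK293 Flp-In cells expressing delE TorsinA were induced with tetracycline and treated with compound for 48 h.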
# [4] = qHTS Assay for Modulators of Human Peripheral Myelin Protein 22 (PMP22) Expression/Activity (AID 1967); settings: Cell-based PMP22 reporter, dual-color luciferase ratio
# How it was run: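 Mouse MSC80 Schwann line, Pmp22 promoter–CBG68 reporter, EF-alpha–CBR internal control. 24h compound exposure, 37 °C/5% CO2, DMEM + 10% FBS. Readout: corrected green/red luminescence ratio, normalized to untreated cells; concentration-response curves fitted and classified.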
# [5] = qHTS for identification of novel therapeutic agents for treatment of microphthalmiaassociated transcription factor (MiT) renal cell carcinoma (RCC) (AID 1963991); settings: CellTiter-Glo, 48 h; for z-score: stronger effect = lower value
# How it was run: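 Viability of three TFE3-fusion renal carcinoma lines measured by CellTiter-Glo after 48 h treatment with each of 1912 compounds at 11 concentrations. Responses scaled between DMSO (100%) and empty wells (0%) before curve fitting.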
# [6] = measured here: cell count channel max response
# [7] = measured here: cell number channel AC50
# [8] = measured here: lipid (BODIPY) channel AC50
# [9] = measured here: lipid channel max response
# [10] = measured here: green reporter channel AC50, mouse Pmp22 promoter in mouse Schwann cells
# [11] = measured here: red reporter channel AC50, EF-alpha promoter control reporter in MSC80 mouse Schwann cells
Compound,AC50 [1],"max response [2, 6]","AC50 [2, 7]","AC50 [2, 8]","max response [2, 9]",AC50 [3],"AC50 [4, 10]","AC50 [4, 11]","z-score ([5]; TFE3-RCC UOK109 viability, measured here: UOK109 Z-AUC)","z-score ([5]; TFE3-RCC viability, measured here: UOK124 Z-AUC)","AC50 ([5]; TFE3-RCC viability, measured here: UOK124 cell viability)","z-score ([5]; TFE3-RCC viability, measured here: UOK145 Z-AUC)"
CN1CCC[C@@H]1CCO[C@](C)(c1ccccc1)c1ccc(Cl)cc1,"12.6 µM [rising, partial curve, poor fit] and 7.94 µM [rising, single point] and 15.8 µM [rising, partial curve]",96.2%,"35.5 µM [rising, partial curve]","35.5 µM [rising, partial curve]",125%,"7.08 µM [falling, partial curve]",,,,,,
O=C(CCCN1CCC(O)(c2ccc(Cl)cc2)CC1)c1ccc(F)cc1,,74.9% and -85.6%,"28.2 µM [rising, partial curve, poor fit] and 39.8 µM [falling, partial curve, poor fit]","31.6 µM [rising, partial curve, poor fit] and 39.8 µM [falling, partial curve, poor fit]",93.4% and -86.5%,"15.8 µM [falling, single point]","53.6 µM [falling, partial curve]","60.1 µM [falling, partial curve, poor fit]",0.156,0.216,"20.9 µM [falling, partial curve]",0.535
OCCN1CCN(CCCN2c3ccccc3C=Cc3ccccc32)CC1,,34.9%,"39.8 µM [rising, single point]","39.8 µM [rising, single point]",41.7%,"31.6 µM [falling, single point]","47.8 µM [falling, partial curve] and 75.7 µM [falling, partial curve]","67.5 µM [falling, partial curve] and 84.9 µM [falling, single point]",,,,
